These are yes or no findings as the source states them, for the method shown. In cells and extracts the contact can be indirect. Some binding calls cover weakened binding; strength is not graded here.
Biological target: stromal interaction molecule 1 (STIM1), endogenous in NIH 3T3 cells (mouse (endogenous in NIH 3T3)) (UniProt P70302)
Assay: co-IP; NIH 3T3 whole cell lysates in 1% CHAPS lysis buffer (50 mM Tris, 150 mM NaCl, 1 mM EDTA, pH 8.0); anti-STIM1 antibody 7 h at 4 °C, protein A-agarose 16 h at 4 °C; blots for STIM2 and Orai1; cells store-filled (control) or treated with 20 μM CPA for 6 min before lysis

The chains behind the UniProt entries cited, without tags or fusion partners. Residues count along the entry.
UniProt P70302, residues 23-685: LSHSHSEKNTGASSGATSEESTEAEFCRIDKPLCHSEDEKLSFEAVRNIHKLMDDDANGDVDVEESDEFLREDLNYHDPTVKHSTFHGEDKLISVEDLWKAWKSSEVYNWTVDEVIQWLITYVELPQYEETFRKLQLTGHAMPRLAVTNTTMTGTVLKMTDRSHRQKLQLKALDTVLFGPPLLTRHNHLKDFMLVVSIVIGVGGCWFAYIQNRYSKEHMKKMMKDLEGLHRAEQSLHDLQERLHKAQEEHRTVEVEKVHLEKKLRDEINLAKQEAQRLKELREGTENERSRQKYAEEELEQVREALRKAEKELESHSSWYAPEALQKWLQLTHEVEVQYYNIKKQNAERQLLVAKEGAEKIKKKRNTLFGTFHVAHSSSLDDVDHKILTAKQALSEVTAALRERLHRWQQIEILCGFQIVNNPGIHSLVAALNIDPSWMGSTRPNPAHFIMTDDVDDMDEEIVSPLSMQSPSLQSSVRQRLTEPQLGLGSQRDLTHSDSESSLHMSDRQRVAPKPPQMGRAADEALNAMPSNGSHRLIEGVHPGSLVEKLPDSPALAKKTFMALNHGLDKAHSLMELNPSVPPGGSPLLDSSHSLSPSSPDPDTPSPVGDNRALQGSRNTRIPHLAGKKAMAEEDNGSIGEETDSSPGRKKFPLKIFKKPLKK
UniProt Q8BWG9: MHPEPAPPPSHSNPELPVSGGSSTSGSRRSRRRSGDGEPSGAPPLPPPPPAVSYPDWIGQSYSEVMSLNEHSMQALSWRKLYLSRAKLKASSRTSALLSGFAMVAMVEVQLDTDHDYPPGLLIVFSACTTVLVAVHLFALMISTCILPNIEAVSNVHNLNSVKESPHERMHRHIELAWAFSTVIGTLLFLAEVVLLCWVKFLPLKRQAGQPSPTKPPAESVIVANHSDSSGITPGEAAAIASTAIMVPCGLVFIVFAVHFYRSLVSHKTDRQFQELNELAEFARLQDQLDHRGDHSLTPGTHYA
UniProt P83093, residues 15-746: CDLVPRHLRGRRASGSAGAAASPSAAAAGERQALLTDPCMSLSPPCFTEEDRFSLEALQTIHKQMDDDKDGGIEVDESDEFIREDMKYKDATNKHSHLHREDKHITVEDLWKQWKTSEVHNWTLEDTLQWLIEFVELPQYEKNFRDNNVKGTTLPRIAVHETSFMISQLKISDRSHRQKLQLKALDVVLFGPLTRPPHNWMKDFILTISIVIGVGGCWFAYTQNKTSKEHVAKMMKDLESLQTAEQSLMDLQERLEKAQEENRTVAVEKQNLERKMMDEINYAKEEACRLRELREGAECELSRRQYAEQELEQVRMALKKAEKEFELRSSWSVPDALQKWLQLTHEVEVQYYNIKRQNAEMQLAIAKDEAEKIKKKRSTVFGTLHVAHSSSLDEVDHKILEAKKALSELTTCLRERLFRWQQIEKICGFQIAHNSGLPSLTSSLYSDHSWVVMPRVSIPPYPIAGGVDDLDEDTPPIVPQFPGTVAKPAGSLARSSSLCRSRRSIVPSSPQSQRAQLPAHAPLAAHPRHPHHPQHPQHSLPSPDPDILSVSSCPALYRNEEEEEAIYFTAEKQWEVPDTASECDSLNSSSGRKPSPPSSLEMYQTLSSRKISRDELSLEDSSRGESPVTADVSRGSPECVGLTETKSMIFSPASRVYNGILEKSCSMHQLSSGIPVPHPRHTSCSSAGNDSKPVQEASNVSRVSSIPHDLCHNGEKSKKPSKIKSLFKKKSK

| Substance | binding |
| --- | --- |
| Orai1, endogenous in NIH 3T3 cells (from UniProt Q8BWG9 1-304) | binds |
| stromal interaction molecule 2 (STIM2), endogenous in NIH 3T3 cells (from UniProt P83093 15-746) | binds |

Source: paper PMC5983841
